According to US9408921B2 (Brandeis University, priority 2009, dated 2016):
[ ]: non-standard residue; d: D form. The star is where a group is joined. Paclitaxel(2'-O-succinyl) = CC(=O)O[C@H]1C(=O)[C@@]2(C)[C@H]([C@H](OC(=O)c3ccccc3)[C@]3(O)C[C@H](OC(=O)[C@H](OC(=O)CCC(=O)*)[C@@H](NC(=O)c4ccccc4)c4ccccc4)C(C)=C1C3(C)C)[C@]1(OC(C)=O)CO[C@@H]1C[C@@H]2O; Acetyl(2-naphthyl) = O=C(Cc1ccc2ccccc2c1)*; pY = N[C@@H](Cc1ccc(OP(=O)(O)O)cc1)C(=O)O

Assay: peptide synthesis
Settings: conjugation step, overall

Substance: {Acetyl(2-naphthyl)}-FFK(Paclitaxel(2'-O-succinyl))[pY]-OH (SMILES CC(=O)O[C@H]1C(=O)[C@@]2(C)[C@H]([C@H](OC(=O)c3ccccc3)[C@]3(O)C[C@H](OC(=O)[C@H](OC(=O)CCC(=O)NCCCC[C@H](NC(=O)[C@H](Cc4ccccc4)NC(=O)[C@H](Cc4ccccc4)NC(=O)Cc4ccc5ccccc5c4)C(=O)N[C@@H](Cc4ccc(OP(=O)(O)O)cc4)C(=O)O)[C@@H](NC(=O)c4ccccc4)c4ccccc4)C(C)=C1C3(C)C)[C@]1(OC(C)=O)CO[C@@H]1C[C@@H]2O)
- conjugation yield: 37.1%
